Measured values published in patent publication US11401510B2, “Generation of airway basal stem cells from human pluripotent stem cells” (TRUSTEES OF BOSTON UNIVERSITY, priority 2020, dated 2022).
For at least one compound, name, drawing or mass did not settle the structure.

Chains of the proteins cited; added tags and fusions are not shown. A line that says so, or that is headed by a name, gives the form on record, which may keep a tag or linker.
UniProt P13569, whole entry: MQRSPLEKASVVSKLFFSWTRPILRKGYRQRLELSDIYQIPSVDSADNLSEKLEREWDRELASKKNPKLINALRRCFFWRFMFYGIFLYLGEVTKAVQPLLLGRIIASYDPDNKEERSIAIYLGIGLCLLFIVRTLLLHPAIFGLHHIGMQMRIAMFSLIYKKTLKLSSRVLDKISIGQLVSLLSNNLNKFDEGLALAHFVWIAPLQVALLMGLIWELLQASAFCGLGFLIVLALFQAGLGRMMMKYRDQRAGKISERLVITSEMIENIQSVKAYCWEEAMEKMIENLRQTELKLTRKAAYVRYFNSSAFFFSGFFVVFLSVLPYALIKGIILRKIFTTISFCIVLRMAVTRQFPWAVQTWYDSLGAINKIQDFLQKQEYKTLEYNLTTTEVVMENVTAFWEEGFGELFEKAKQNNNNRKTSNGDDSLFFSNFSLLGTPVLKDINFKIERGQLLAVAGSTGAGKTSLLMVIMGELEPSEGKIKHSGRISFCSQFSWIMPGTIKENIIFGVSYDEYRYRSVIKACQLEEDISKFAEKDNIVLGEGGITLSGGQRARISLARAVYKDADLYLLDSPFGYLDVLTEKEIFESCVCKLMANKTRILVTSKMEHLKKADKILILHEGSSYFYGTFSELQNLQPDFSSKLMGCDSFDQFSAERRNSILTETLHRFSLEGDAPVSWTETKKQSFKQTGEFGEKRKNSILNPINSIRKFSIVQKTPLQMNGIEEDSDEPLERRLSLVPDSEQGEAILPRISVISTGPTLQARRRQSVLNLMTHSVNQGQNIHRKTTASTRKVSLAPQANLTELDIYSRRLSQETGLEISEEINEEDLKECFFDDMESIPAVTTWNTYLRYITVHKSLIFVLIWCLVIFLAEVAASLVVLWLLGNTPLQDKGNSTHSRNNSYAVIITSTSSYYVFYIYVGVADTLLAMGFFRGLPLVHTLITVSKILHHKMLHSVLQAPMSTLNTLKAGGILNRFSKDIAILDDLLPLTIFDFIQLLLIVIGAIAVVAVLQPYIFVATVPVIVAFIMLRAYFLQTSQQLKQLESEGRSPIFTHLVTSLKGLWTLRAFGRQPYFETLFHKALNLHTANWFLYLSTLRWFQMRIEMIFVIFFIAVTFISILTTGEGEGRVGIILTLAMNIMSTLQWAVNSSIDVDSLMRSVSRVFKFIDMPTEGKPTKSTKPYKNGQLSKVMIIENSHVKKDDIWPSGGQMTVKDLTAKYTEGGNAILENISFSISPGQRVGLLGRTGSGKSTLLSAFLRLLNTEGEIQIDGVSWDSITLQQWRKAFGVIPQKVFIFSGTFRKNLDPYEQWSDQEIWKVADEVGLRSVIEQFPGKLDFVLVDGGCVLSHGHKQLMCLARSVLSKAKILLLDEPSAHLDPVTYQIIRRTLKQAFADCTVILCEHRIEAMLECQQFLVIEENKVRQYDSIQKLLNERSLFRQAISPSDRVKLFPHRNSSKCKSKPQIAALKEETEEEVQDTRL
UniProt P13569, with tags, fused parts or gaps DEL508-508: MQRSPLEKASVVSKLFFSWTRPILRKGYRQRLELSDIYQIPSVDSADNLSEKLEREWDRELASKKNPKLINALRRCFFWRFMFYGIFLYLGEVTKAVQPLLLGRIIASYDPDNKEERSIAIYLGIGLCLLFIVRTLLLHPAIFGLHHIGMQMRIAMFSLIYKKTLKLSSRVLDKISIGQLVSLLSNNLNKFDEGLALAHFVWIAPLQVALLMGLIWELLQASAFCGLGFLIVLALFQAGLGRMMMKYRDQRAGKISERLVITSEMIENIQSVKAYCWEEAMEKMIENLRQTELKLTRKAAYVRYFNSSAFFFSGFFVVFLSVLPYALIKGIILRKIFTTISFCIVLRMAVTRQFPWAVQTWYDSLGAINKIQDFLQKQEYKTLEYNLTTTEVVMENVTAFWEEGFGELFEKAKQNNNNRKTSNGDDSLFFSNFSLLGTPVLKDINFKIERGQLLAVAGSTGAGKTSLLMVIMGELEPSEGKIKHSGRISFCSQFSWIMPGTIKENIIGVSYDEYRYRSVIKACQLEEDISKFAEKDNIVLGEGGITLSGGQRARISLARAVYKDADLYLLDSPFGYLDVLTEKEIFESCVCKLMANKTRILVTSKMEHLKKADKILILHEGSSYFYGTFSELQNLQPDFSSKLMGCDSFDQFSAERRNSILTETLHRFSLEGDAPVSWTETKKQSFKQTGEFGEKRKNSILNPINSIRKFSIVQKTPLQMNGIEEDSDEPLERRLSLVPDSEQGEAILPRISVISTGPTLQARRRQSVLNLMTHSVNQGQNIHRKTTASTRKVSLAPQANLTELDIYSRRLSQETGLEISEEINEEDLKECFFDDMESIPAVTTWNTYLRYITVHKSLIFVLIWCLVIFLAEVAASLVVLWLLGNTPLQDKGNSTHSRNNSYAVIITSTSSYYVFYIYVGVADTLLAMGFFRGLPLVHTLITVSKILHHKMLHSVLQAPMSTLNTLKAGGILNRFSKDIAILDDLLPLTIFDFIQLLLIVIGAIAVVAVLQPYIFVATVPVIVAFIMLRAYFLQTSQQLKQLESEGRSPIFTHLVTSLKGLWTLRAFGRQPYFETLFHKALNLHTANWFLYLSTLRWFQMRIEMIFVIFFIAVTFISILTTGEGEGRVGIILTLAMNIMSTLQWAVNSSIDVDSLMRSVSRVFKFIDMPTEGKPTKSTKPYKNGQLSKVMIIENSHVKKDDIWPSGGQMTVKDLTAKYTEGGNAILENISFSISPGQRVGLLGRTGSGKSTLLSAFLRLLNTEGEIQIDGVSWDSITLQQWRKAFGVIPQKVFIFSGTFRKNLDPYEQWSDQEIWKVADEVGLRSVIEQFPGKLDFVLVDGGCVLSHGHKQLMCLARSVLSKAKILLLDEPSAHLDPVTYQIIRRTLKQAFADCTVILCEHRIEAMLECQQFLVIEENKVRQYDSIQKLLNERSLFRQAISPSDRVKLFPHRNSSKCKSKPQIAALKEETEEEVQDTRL

How the values were obtained:
[1] = target: CFTR in ALI cultures generated from corrected CF iPSCs (Corr CF) (Homo sapiens, UniProt P13569); experiment: Ussing chamber analysis of CFTR-dependent current, corrected CF ALI cultures; settings: Corr CF (gene-corrected) iPSC-derived ALI cultures, after amiloride; mean±SD, n=3
[2] = target: CFTR (F508del) in ALI cultures generated from CF iPSCs (Homo sapiens, UniProt P13569, DEL508-508); experiment: Ussing chamber analysis of CFTR-dependent current, CF ALI cultures; format: cell-based; settings: CF (F508del homozygous) iPSC-derived ALI cultures, after amiloride

## C=C[C@@]1(C)CC(=O)[C@]2(O)[C@@]3(C)[C@@H](O)CCC(C)(C)[C@@H]3[C@H](O)[C@H](OC(C)=O)[C@@]2(C)O1 [forskolin]
[1]
  AIsc (change in short circuit current): 35.1±1.8 pA/cm2
[2]
  AIsc (change in short circuit current): 0.8 pA/cm2
